Measured data: PubChem BioAssay AID504791 (Drosophila RNAi Screening Center, 2011)

- Purpose: 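Factors in Argonaute-based small RNA production and activity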 (primary screen)
- System: Drosophila S2-derived reporter cells
- Reagent: long dsRNA against Drosophila genes, about 150-250 ng dsRNA per well (siRNA assay); about 80-120 ng (miRNA assay)
- Time to read-out: about 5 days (siRNA assay); about 4 days (miRNA assay)
- Treatment: copper sulfate induction of reporters: 25 µM (siRNA assay); 200 mM stated (miRNA assay), 1-2 days before reading
- Measurement: 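Dual luciferase assay: Renilla to firefly signal ratio in each well, scaled to the mean ratio of its plate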
- Reading the numbers: siRNA reporter hit score: higher = 3 marks a strong hit with raised ratio; -3 a strong hit with lowered ratio
- Active means: 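First-pass picks had plate-scaled ratios over 1.5 for the siRNA assay, over 1.6 for the miRNA assay, or under 0.6; two distinct dsRNAs had to score alike on retest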
The screen tested about 23,000 reagents; this is a random part of those with a known target gene and a result. Over the whole deposit, 199 (0.86%) got an active call. 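Plate-scaled ratios behind the calls are not deposited; printed light signals are raw; many rows marked increased or decreased are still called inactive.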 The numbers tell different reagents against one gene apart. A plus sign joins genes that one reagent is predicted to hit. Reagent sequences are not shown.

dlt (discs lost) scored stable assay Renilla, run 1 (luminescence) = 5840; stable assay firefly, run 1 (luminescence) = 3.37e5; inactive. After knock-down of l(3)87Df (lethal (3) 87Df), the record shows stable siRNA reporter change reporter ratio lowered past the hit cutoff; stable assay Renilla, run 1 (luminescence) = 6363; stable assay firefly, run 1 (luminescence) = 5.81e5; inactive. Depletion of CheB42a (Chemosensory protein B 42a) gave: stable assay Renilla, run 1 (luminescence) = 3540; stable assay firefly, run 1 (luminescence) = 4.17e5; inactive. Knock-down of CG12849 resulted in: stable assay Renilla, run 1 (luminescence) = 6228; stable assay firefly, run 1 (luminescence) = 3.95e5; inactive. Against CG4955 the deposit lists stable assay Renilla, run 1 (luminescence) = 7268; stable assay firefly, run 1 (luminescence) = 4.59e5; inactive. After knock-down of Pp1-13C (Protein phosphatase 1 at 13C) #1, the record shows stable assay Renilla, run 1 (luminescence) = 9584; stable assay firefly, run 1 (luminescence) = 6.49e5; inactive.

Against Pp1-13C (Protein phosphatase 1 at 13C) #2, the entry reads stable siRNA reporter change reporter ratio raised past the hit cutoff; stable assay Renilla, run 1 (luminescence) = 4263; stable assay firefly, run 1 (luminescence) = 1.96e5; inactive. Depletion of mal (maroon-like) resulted in: stable assay Renilla, run 1 (luminescence) = 8069; stable assay firefly, run 1 (luminescence) = 4.36e5; inactive. Against CheB42c (Chemosensory protein B 42c) the deposit lists stable assay Renilla, run 1 (luminescence) = 6342; stable assay firefly, run 1 (luminescence) = 3.55e5; inactive. Silencing of Cpr65Aw (Cuticular protein 65Aw) gave: stable assay Renilla, run 1 (luminescence) = 4767; stable assay firefly, run 1 (luminescence) = 5.24e5; inactive.

Laid out differently: results already given.
Gene | reagent | siRNA reporter hit score | stable siRNA reporter change | miRNA reporter change | stable assay Renilla, run 1 (luminescence) | stable assay firefly, run 1 (luminescence) | call
CG12849 | 1 | – | – | – | 6228 | 3.95e5 | inactive
CG4955 | 1 | – | – | – | 7268 | 4.59e5 | inactive
Pp1-13C (Protein phosphatase 1 at 13C) | 1 | – | – | – | 9584 | 6.49e5 | inactive

The listing continues.
Silencing of yellow-h resulted in: stable assay Renilla, run 1 (luminescence) = 6935; stable assay firefly, run 1 (luminescence) = 4.49e5; inactive. For sac (sterile affecting ciliogenesis), the values are stable assay Renilla, run 1 (luminescence) = 7167; stable assay firefly, run 1 (luminescence) = 3.74e5; inactive. With knock-down of Hs3st-B (Heparan sulfate 3-O sulfotransferase-B) the results were stable assay Renilla, run 1 (luminescence) = 5124; stable assay firefly, run 1 (luminescence) = 4.49e5; inactive. CG31205 scored stable assay Renilla, run 1 (luminescence) = 4339; stable assay firefly, run 1 (luminescence) = 3.79e5; inactive. Or22c (Odorant receptor 22c) gave stable assay Renilla, run 1 (luminescence) = 7850; stable assay firefly, run 1 (luminescence) = 4.55e5; inactive. Kdm4B (Lysine demethylase 4B) scored stable assay Renilla, run 1 (luminescence) = 8014; stable assay firefly, run 1 (luminescence) = 4.52e5; inactive.

Against Polr3F (RNA polymerase III subunit F), the values are stable assay Renilla, run 1 (luminescence) = 5480; stable assay firefly, run 1 (luminescence) = 2.91e5; inactive. Silencing of pHCl-1 (pH-sensitive chloride channel 1) #1 resulted in: stable assay Renilla, run 1 (luminescence) = 5619; stable assay firefly, run 1 (luminescence) = 3.49e5; inactive. pHCl-1 (pH-sensitive chloride channel 1) #2 gave miRNA reporter change reporter ratio lowered past the hit cutoff; stable assay Renilla, run 1 (luminescence) = 7132; stable assay firefly, run 1 (luminescence) = 4.66e5; inactive. Knock-down of pHCl-1 (pH-sensitive chloride channel 1) #3 resulted in: stable assay Renilla, run 1 (luminescence) = 9090; stable assay firefly, run 1 (luminescence) = 4.79e5; inactive. Silencing of CG5399 came out at: stable assay Renilla, run 1 (luminescence) = 8282; stable assay firefly, run 1 (luminescence) = 4.29e5; inactive. For maf-S, the entry reads stable assay Renilla, run 1 (luminescence) = 6955; stable assay firefly, run 1 (luminescence) = 4.37e5; inactive.

Against CG14054 the deposit lists stable assay Renilla, run 1 (luminescence) = 6267; stable assay firefly, run 1 (luminescence) = 3.16e5; inactive. For vls (valois), the values are stable assay Renilla, run 1 (luminescence) = 56275; stable assay firefly, run 1 (luminescence) = 1.72e6; inactive. Knock-down of Prosalpha1R + Prosalpha1 came out at: siRNA reporter hit score -3; stable assay Renilla, run 1 (luminescence) = 7495; stable assay firefly, run 1 (luminescence) = 3.47e5; inactive. Agxt (Alanine-glyoxylate aminotransferase) scored stable assay Renilla, run 1 (luminescence) = 7602; stable assay firefly, run 1 (luminescence) = 4.01e5; inactive. With knock-down of Lamp1, the record shows stable assay Renilla, run 1 (luminescence) = 6767; stable assay firefly, run 1 (luminescence) = 5.21e5; inactive. For CG10862, the values are stable assay Renilla, run 1 (luminescence) = 7062; stable assay firefly, run 1 (luminescence) = 3.13e5; inactive.
